According to publication PMC8073111:
These are yes or no findings as the source states them, for the method shown. Binding seen in cells or lysates may run through a third protein. Some results given as binding are weak or reduced against the parent protein; the word gives no strength. For part of these data: Tags and fused reporters may be left off the sequences shown.

Chains of the proteins cited; added tags and fusions are not shown. Residues count along the entry.
UniProt P32248, residues 25-378: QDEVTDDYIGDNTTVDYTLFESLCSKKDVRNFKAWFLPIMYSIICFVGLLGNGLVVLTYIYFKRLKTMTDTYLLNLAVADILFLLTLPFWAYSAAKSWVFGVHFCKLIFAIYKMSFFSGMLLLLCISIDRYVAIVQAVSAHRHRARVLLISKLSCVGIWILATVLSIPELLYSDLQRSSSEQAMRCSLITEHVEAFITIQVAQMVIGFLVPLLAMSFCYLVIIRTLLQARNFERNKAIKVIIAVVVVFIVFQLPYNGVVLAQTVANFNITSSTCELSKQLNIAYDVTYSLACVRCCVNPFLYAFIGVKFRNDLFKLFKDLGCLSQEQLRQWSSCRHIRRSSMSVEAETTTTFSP
UniProt P29067: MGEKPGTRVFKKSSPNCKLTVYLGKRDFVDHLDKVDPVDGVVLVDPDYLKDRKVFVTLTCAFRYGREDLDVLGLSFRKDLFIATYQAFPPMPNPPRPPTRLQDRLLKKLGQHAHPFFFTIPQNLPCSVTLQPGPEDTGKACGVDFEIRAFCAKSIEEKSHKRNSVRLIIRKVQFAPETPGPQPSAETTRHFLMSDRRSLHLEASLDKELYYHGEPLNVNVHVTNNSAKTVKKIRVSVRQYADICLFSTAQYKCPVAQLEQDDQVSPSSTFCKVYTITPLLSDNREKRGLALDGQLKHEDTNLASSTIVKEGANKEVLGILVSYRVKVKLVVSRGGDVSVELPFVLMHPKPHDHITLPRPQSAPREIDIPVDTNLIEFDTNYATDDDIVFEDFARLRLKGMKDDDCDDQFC

Columns and labels:
Experiment in all cases: FRET or BRET; FlpInCHO cells transiently co-expressing C-myc-receptor-RLuc8 (donor) and YFP-β-arrestin2 (acceptor); stimulated with cognate chemokines at the indicated concentrations in HBSS with 5 μM coelenterazine-h; BRET read 10 min after stimulation
C-myc-CCR4-RLuc8 (human) = molecular target: T1, C-myc-CCR4-RLuc8 (human) (UniProt P51679)
T1 sequence: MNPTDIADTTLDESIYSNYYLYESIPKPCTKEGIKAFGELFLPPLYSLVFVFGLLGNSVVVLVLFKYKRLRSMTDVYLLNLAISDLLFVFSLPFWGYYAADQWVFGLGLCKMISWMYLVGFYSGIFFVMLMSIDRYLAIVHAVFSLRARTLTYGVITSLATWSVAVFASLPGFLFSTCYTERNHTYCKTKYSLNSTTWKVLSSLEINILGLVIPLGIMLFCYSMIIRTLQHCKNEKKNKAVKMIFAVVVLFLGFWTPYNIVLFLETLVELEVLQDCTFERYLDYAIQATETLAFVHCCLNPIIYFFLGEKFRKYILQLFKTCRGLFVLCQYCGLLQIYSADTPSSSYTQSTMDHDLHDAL

[1] = molecular target: T2, C-myc-CCR10-RLuc8 (human) (UniProt P46092)
T2 sequence: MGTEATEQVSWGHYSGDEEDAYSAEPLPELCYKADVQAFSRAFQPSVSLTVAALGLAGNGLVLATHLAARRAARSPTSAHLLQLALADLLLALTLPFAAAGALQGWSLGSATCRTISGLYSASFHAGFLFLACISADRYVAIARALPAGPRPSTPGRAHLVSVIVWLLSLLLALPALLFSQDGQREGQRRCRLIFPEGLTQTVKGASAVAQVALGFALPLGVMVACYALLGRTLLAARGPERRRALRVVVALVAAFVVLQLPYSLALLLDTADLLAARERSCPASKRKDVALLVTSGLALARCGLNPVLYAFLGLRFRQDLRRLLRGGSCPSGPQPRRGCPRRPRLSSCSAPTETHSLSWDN

C-myc-CCR7-RLuc8 (human) = C-myc-CCR7-RLuc8 (human) (UniProt P32248)

Measured: binding

YFP-β-arrestin2 (from UniProt P29067 1-410)
binds: all assays above
